Here are results for two molecules from publication doi:10.1101/2024.05.20.594848.

The target in test [1] is T1, mDCIR1-ECD mutated in the calcium-binding site (mDCIR1-ΔECD), chemically biotinylated (mouse) (UniProt Q923C7).
T1 sequence (chain, biotin (chemical, EZ-Link Sulfo-NHS-LC-Biotin)): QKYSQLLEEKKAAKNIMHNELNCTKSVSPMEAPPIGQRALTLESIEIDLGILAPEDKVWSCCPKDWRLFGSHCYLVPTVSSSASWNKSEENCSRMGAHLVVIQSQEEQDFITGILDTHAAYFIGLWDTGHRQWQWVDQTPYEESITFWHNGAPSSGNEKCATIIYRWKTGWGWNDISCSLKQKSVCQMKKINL
Put plainly: pull-down.

The target of test [2] is mouse low-density lipoprotein receptor-related protein 1 (LRP1) β-chain (mouse (endogenous in BMDM)). Put plainly: far-Western, overlay or dot blot.

No constants are given. Whether binding was seen depends on the method and setting. For some assays here: Binding seen in cells or lysates may run through a third protein.

Turning to “mouse low-density lipoprotein receptor-related protein 1 (LRP1) β-chain”, the binding result in test [1] is listed as “no binding”.

B1: mDCIR1-ECD mutated in the calcium-binding site (mDCIR1-ΔECD), chemically biotinylated (domain or fragment, UniProt Q923C7 70-262)
chain: T1 sequence (chain, biotin (chemical, EZ-Link Sulfo-NHS-LC-Biotin))
modifications: biotin (chemical, EZ-Link Sulfo-NHS-LC-Biotin)
Take B1: the binding entry in test [2] is “no binding (tested: 3-5 µg/mL)”.
